Experimental data as given in article PMC7919097.
No constants are given. Whether binding was seen depends on the method and setting. Binding seen in cells or lysates may run through a third protein. A yes stands for co-enrichment or nearness to the bait. Other partners may have been found.

Chains of the proteins cited; added tags and fusions are not shown.
UniProt P62316: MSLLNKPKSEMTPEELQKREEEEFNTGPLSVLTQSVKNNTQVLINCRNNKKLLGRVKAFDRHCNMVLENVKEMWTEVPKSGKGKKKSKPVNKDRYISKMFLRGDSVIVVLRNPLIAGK
UniProt P62318: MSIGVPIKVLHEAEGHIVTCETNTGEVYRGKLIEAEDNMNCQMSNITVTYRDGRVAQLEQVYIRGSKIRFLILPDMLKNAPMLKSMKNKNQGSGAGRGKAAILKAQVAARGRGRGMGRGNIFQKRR
UniProt O75533: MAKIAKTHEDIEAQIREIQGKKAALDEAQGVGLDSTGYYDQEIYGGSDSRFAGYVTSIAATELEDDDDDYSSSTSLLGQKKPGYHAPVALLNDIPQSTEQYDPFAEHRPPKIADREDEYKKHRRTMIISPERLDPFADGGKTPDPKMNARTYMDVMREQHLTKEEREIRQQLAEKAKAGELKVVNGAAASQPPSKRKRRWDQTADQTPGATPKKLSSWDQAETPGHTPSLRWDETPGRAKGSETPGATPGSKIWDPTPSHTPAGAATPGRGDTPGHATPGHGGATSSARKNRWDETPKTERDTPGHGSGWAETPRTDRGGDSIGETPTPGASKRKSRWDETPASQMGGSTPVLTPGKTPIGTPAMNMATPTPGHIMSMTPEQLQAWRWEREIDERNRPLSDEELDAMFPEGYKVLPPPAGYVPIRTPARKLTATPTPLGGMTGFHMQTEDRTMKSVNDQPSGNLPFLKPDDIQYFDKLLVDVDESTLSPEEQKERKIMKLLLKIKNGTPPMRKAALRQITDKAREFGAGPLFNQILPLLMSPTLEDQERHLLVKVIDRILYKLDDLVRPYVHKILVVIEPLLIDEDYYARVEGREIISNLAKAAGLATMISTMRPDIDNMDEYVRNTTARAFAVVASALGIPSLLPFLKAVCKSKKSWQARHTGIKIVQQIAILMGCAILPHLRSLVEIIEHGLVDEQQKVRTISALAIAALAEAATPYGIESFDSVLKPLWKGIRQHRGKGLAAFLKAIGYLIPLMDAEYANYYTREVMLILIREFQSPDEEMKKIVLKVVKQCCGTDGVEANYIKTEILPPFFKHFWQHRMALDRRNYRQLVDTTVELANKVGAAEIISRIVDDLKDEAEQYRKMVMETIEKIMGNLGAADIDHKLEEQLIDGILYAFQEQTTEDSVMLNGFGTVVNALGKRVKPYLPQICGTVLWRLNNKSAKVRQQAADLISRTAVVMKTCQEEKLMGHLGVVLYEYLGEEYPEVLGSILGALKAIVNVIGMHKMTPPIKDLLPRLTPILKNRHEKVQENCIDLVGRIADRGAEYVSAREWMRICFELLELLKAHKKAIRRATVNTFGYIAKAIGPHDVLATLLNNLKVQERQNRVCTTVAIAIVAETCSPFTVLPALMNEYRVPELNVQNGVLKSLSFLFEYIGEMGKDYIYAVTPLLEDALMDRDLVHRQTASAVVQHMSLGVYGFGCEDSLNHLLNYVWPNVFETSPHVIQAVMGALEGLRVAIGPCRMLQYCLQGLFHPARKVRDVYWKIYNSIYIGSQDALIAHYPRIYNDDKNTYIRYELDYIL

Assays:
[1] = molecular target: GFP-tagged SNRPD2 (Hs578T BAC GFP-reporter) (human) (UniProt P62316); experiment: affinity purification with mass spectrometry; GFP-Trap A beads on lysates of Hs578T BAC GFP-reporter lines (EBC buffer, 150 mM NaCl, 0.5% NP-40, sonicated, benzonase 1 h 4 °C); on-bead trypsin digestion, mass spectrometry
[2] = molecular target: GFP-tagged SNRPD3 (Hs578T BAC GFP-reporter) (human) (UniProt P62318); experiment: as above

Row | Molecule | binding [1] | binding [2]
1 | SF3B1 (from UniProt O75533 1-1304) | binds | binds
2 | AQR (protein, UniProt O60306 1-1485) MAAPAQPKKIVAPTVSQINAEFVTQLACKYWAPHIKKKSPFDIKVIEDIYEKEIVKSRFAIRKIMLLEFSQYLENYLWMNYSPEVSSKAYLMSICCMVNEKFRENVPAWEIFKKKPDHFPFFFKHILKAALAETDGEFSLHEQTVLLLFLDHCFNSLEVDLIRSQVQQLISLPMWMGLQLARLELELKKTPKLRKFWNLIKKNDEKMDPEAREQAYQERRFLSQLIQKFISVLKSVPLSEPVTMDKVHYCERFIELMIDLEALLPTRRWFNTILDDSHLLVHCYLSNLVRREEDGHLFSQLLDMLKFYTGFEINDQTGNALTENEMTTIHYDRITSLQRAAFAHFPELYDFALSNVAEVDTRESLVKFFGPLSSNTLHQVASYLCLLPTLPKNEDTTFDKEFLLELLVSRHERRISQIQQLNQMPLYPTEKIIWDENIVPTEYYSGEGCLALPKLNLQFLTLHDYLLRNFNLFRLESTYEIRQDIEDSVSRMKPWQSEYGGVVFGGWARMAQPIVAFTVVEVAKPNIGENWPTRVRADVTINLNVRDHIKDEWEGLRKHDVCFLITVRPTKPYGTKFDRRRPFIEQVGLVYVRGCEIQGMLDDKGRVIEDGPEPRPNLRGESRTFRVFLDPNQYQQDMTNTIQNGAEDVYETFNIIMRRKPKENNFKAVLETIRNLMNTDCVVPDWLHDIILGYGDPSSAHYSKMPNQIATLDFNDTFLSIEHLKASFPGHNVKVTVEDPALQIPPFRITFPVRSGKGKKRKDADVEDEDTEEAKTLIVEPHVIPNRGPYPYNQPKRNTIQFTHTQIEAIRAGMQPGLTMVVGPPGTGKTDVAVQIISNIYHNFPEQRTLIVTHSNQALNQLFEKIMALDIDERHLLRLGHGEEELETEKDFSRYGRVNYVLARRIELLEEVKRLQKSLGVPGDASYTCETAGYFFLYQVMSRWEEYISKVKNKGSTLPDVTEVSTFFPFHEYFANAPQPIFKGRSYEEDMEIAEGCFRHIKKIFTQLEEFRASELLRSGLDRSKYLLVKEAKIIAMTCTHAALKRHDLVKLGFKYDNILMEEAAQILEIETFIPLLLQNPQDGFSRLKRWIMIGDHHQLPPVIKNMAFQKYSNMEQSLFTRFVRVGVPTVDLDAQGRARASLCNLYNWRYKNLGNLPHVQLLPEFSTANAGLLYDFQLINVEDFQGVGESEPNPYFYQNLGEAEYVVALFMYMCLLGYPADKISILTTYNGQKHLIRDIINRRCGNNPLIGRPNKVTTVDRFQGQQNDYILLSLVRTRAVGHLRDVRRLVVAMSRARLGLYIFARVSLFQNCFELTPAFSQLTARPLHLHIIPTEPFPTTRKNGERPSHEVQIIKNMPQMANFVYNMYMHLIQTTHHYHQTLLQLPPAMVEEGEEVQNQETELETEEEAMTVQADIIPSPTDTSCRQETPAFQTDTTPSETGATSTPEAIPALSETTPTVVGAVSAPAEANTPQDATSAPEETK | binds | binds
3 | BUD31 (protein, UniProt P41223 1-144) MPKVKRSRKAPPDGWELIEPTLDELDQKMREAETEPHEGKRKVESLWPIFRIHHQKTRYIFDLFYKRKAISRELYEYCIKEGYADKNLIAKWKKQGYENLCCLRCIQTRDTNFGTNCICRVPKSKLEVGRIIECTHCGCRGCSG | binds | binds
4 | CRNKL1 (protein, UniProt Q9BZJ0 1-848) MTATVENLTFQKDTLGNAVDKNTSRLELRSYSLAGRHGSTEPLVLAWSSQFRRLTWGCALDALHRSPCVAASQHGVTHLIRSSRTPHSTRCRKEDAQPGHHGNGAASVTAQARGQRSVLQVPLPVPRSCLFSESFVVSVSSQSRFLASVPGTGVQRSTAADMAASTAAGKQRIPKVAKVKNKAPAEVQITAEQLLREAKERELELLPPPPQQKITDEEELNDYKLRKRKTFEDNIRKNRTVISNWIKYAQWEESLKEIQRARSIYERALDVDYRNITLWLKYAEMEMKNRQVNHARNIWDRAITTLPRVNQFWYKYTYMEEMLGNVAGARQVFERWMEWQPEEQAWHSYINFELRYKEVDRARTIYERFVLVHPDVKNWIKYARFEEKHAYFAHARKVYERAVEFFGDEHMDEHLYVAFAKFEENQKEFERVRVIYKYALDRISKQDAQELFKNYTIFEKKFGDRRGIEDIIVSKRRFQYEEEVKANPHNYDAWFDYLRLVESDAEAEAVREVYERAIANVPPIQEKRHWKRYIYLWINYALYEELEAKDPERTRQVYQASLELIPHKKFTFAKMWILYAQFEIRQKNLSLARRALGTSIGKCPKNKLFKVYIELELQLREFDRCRKLYEKFLEFGPENCTSWIKFAELETILGDIDRARAIYELAISQPRLDMPEVLWKSYIDFEIEQEETERTRNLYRRLLQRTQHVKVWISFAQFELSSGKEGSLTKCRQIYEEANKTMRNCEEKEERLMLLESWRSFEEEFGTASDKERVDKLMPEKVKKRRKVQTDDGSDAGWEEYFDYIFPEDAANQPNLKLLAMAKLWKKQQQEKEDAEHHPDEDVDESES | binds | binds

Further lines, results first:

Row | binding [1] | binding [2] | Molecule
5 | binds | – | SNRPD3 (endogenous) (from UniProt P62318 1-126)
6 | binds | binds | CACTIN (protein, UniProt Q8WUQ7 1-758) MGRDTRSRSRSAGRRGRRRQSQSGSRSRSRSHGRRNRRRREDEGRRRRRRRSRERRSDSEEERWQRSGMRSRSPPRPKWHSRDGSSQSDSGEEQSRGQWARRRRRARSWSPSSSASSSASPGRSQSPRAAAAALSQQQSLQERLRLREERKQQEELMKAFETPEEKRARRLAKKEAKERKKREKMGWGEEYMGYTNTDNPFGDNNLLGTFIWNKALEKKGISHLEEKELKERNKRIQEDNRLELQKVKQLRLEREREKAMREQELEMLQREKEAEHFKTWEEQEDNFHLQQAKLRSKIRIRDGRAKPIDLLAKYISAEDDDLAVEMHEPYTFLNGLTVADMEDLLEDIQVYMELEQGKNADFWRDMTTITEDEISKLRKLEASGKGPGERREGVNASVSSDVQSVFKGKTYNQLQVIFQGIEGKIRAGGPNLDMGYWESLLQQLRAHMARARLRERHQDVLRQKLYKLKQEQGVESEPLFPILKQEPQSPSRSLEPEDAAPTPPGPSSEGGPAEAEVDGATPTEGDGDGDGEGEGEGEAVLMEEDLIQQSLDDYDAGRYSPRLLTAHELPLDAHVLEPDEDLQRLQLSRQQLQVTGDASESAEDIFFRRAKEGMGQDEAQFSVEMPLTGKAYLWADKYRPRKPRFFNRVHTGFEWNKYNQTHYDFDNPPPKIVQGYKFNIFYPDLIDKRSTPEYFLEACADNKDFAILRFHAGPPYEDIAFKIVNREWEYSHRHGFRCQFANGIFQLWFHFKRYRYRR
7 | binds | binds | SNW1/SKIIP (protein, UniProt Q13573 1-536) MALTSFLPAPTQLSQDQLEAEEKARSQRSRQTSLVSSRREPPPYGYRKGWIPRLLEDFGDGGAFPEIHVAQYPLDMGRKKKMSNALAIQVDSEGKIKYDAIARQGQSKDKVIYSKYTDLVPKEVMNADDPDLQRPDEEAIKEITEKTRVALEKSVSQKVAAAMPVRAADKLAPAQYIRYTPSQQGVAFNSGAKQRVIRMVEMQKDPMEPPRFKINKKIPRGPPSPPAPVMHSPSRKMTVKEQQEWKIPPCISNWKNAKGYTIPLDKRLAADGRGLQTVHINENFAKLAEALYIADRKAREAVEMRAQVERKMAQKEKEKHEEKLREMAQKARERRAGIKTHVEKEDGEARERDEIRHDRRKERQHDRNLSRAAPDKRSKLQRNENRDISEVIALGVPNPRTSNEVQYDQRLFNQSKGMDSGFAGGEDEIYNVYDQAWRGGKDMAQSIYRPSKNLDKDMYGDDLEARIKTNRFVPDKEFSGSDRRQRGREGPVQFEEDPFGLDKFLEEAKQHGGSKRPSDSSRPKEHEHEGKKRRKE
